In one assay the target is FLAG-TRIM22 (human) (UniProt Q8IYM9). The assay is described as follows: affinity purification with mass spectrometry; FLAG-TRIM6 or FLAG-TRIM22 (or empty vector) in HEK293T, untreated or 18 h 5000 units/ml IFN-β; anti-FLAG cross-linked to Protein A/G beads; 0.5% IGEPAL, 100 mM KCl, 50 mM Tris pH 7.5, 5 mM MgCl2; DIA mass spectrometry.
In the next assay the target is FLAG-TRIM6 (human) (UniProt Q9C030). Described as above.

Chains of the proteins cited; added tags and fusions are not shown.
UniProt Q8IYM9: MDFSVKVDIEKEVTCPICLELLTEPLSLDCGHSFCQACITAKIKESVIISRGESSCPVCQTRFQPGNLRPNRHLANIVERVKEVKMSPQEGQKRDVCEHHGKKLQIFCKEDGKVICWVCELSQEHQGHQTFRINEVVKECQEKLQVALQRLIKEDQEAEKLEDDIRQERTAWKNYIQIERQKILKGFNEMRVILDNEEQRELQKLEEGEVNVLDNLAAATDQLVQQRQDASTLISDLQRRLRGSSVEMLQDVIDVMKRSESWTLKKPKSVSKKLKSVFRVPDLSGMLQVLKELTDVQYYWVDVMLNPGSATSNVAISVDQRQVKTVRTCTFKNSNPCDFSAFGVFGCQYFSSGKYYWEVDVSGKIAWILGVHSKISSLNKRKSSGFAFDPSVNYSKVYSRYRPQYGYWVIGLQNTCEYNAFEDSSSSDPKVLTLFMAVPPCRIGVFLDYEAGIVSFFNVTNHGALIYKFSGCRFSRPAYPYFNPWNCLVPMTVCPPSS
UniProt Q9C030: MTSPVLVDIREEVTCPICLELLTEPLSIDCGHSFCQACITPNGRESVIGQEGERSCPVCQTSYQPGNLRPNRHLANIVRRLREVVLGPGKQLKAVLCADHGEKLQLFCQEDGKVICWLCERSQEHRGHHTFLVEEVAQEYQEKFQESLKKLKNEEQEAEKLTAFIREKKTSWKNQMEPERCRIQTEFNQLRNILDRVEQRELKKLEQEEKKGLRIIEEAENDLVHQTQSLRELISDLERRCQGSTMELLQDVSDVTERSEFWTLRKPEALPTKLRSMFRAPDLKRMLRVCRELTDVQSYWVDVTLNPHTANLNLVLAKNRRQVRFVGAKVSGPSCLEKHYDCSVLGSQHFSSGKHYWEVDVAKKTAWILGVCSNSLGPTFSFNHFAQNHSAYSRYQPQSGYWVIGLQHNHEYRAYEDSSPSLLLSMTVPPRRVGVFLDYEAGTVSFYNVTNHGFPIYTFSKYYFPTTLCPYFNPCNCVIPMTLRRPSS
UniProt P19474: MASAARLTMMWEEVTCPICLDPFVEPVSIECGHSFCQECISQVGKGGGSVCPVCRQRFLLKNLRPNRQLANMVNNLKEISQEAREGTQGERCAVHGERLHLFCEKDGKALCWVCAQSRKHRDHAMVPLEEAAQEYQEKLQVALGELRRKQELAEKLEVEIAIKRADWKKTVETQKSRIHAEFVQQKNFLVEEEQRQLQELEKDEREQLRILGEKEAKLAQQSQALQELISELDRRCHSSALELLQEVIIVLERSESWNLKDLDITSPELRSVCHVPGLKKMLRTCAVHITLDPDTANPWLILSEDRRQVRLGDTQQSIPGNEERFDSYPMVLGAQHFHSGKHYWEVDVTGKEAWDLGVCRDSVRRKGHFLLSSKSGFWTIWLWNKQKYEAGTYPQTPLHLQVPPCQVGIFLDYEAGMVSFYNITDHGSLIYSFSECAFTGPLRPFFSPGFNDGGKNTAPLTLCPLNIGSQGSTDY

Results are given in words; binding and its absence hold for the method and conditions named. In cells and extracts the contact can be indirect. Here binding means that the protein was enriched with, or labelled near, the bait; the list need not be complete. No binding means not detected with the bait.

The values that follow come from article PMC11992055, “Identification of RING E3 pseudoligases in the TRIM protein family” (Nature Communications, 2025).

As to “TRIM21 (IFN-β-induced) (from UniProt P19474 1-475)”, the binding entry with FLAG-TRIM22 (human) and in the assay with FLAG-TRIM6 (human) was “no binding” throughout.
